In patent publication US20130102009A1, “SIRTUIN ACTIVATORS AND ACTIVATION ASSAYS” (priority 2010, published 2013):
The source holds more than one record for some entries. The list is limited to them. There may be further records. The values listed for one entry do not match, cause unknown; they may come from other doses, times, organisms or constructs than stated.

Sequences of proteins named here, by UniProt entry; tags and fusion partners are left off.
UniProt Q96EB6, whole entry: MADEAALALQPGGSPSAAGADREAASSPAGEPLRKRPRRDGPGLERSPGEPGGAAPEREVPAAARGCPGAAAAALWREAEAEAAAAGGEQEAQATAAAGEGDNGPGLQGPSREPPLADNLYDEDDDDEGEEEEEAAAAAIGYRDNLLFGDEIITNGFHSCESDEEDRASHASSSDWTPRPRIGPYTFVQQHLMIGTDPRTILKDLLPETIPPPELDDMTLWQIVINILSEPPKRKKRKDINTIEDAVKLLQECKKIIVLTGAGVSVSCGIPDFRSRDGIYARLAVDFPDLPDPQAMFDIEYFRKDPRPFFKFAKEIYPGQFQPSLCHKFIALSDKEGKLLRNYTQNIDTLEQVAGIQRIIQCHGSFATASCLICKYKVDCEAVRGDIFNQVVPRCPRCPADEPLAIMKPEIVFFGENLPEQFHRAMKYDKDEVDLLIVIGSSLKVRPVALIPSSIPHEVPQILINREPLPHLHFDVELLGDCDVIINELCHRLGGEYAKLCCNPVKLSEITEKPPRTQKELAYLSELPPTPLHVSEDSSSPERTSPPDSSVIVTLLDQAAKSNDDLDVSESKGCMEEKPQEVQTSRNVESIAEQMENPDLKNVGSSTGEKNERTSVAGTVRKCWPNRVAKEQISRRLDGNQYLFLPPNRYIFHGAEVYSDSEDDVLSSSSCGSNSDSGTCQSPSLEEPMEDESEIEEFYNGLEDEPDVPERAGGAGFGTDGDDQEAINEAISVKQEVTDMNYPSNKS

Biological target: SIRT1 (Homo sapiens, UniProt Q96EB6)
Experiment: Continuous PNC1-GDH-coupled assay of SIRT1-catalyzed deacetylation of Ac-Arg-His-Lys-Lys^Ac-X with STACs
Assay type: biochemical
Conditions: [SRT]o = 5 μM, [peptide]o ≦ Km, [NAD+] = 70 μM

COc1cc(C(=O)Nc2ccccc2-c2cn3c(CN4CCNCC4)csc3n2)cc(OC)c1OC
Relative Velocity, X=AMC (Ac-Arg-His-Lys-Lys^Ac-AMC): inhibits and 0.6
Relative Velocity, X=Trp-NH2 (Ac-Arg-His-Lys-Lys^Ac-Trp-NH2): activates and 1.6
